US5302698
Results from cells or extracts need not show a direct contact. Tags and fusion partners may be left off the protein sequences shown.

Tests used:
[1] = target: T1, lambda2 cDNA-encoded AFP enhancer-binding protein (Homo sapiens) (UniProt Q15911); experiment: footprint; conditions: DNase I protection of 15 bp containing TTAATAATTA; 10 mM Tris-HCl pH 7.5, 50 mM NaCl, 2.5 mM MgCl2, poly(dI-dC), room temperature; protein in a lysate after overexpression; label: 32P 5' end
T1 sequence: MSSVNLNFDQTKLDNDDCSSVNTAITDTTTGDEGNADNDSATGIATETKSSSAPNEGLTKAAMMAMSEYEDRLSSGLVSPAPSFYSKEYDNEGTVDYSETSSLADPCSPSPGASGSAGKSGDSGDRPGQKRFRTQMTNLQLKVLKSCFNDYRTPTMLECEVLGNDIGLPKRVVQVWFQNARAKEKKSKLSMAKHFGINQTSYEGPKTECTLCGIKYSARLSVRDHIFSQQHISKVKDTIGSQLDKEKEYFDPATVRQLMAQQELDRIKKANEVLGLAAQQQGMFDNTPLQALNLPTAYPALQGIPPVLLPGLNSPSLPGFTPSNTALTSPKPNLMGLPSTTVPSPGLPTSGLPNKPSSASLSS

[2] = target: T1, lambda2 cDNA-encoded AFP enhancer-binding protein (Homo sapiens); experiment: EMSA; conditions: two shifted bands (a and b) with lambda2 lysogen extract, none with lambda gt11 control extract; probe was SmaI/HincII fragment of pAFE(HgiAI/BstNI)1; protein in a lysate after overexpression; label: 32P 5' end

“AGGGAGCCTGATTAATAATTACACTAAGTCAA (double strand) [AFP enhancer region, footprinted segment]”: binds [1]; binds [2].
